Measured data: PubChem BioAssay AID1259254 (NCATS, 2017)
Test: 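Gene knock-downs that lead to re-replication, shown by excess G2 DNA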 (primary screen). Cell system: human HCT116 colorectal cancer cells. Knock-down reagent: single siRNA against human genes. Timing: 3 days. Measured: 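Nuclei stained with Hoechst and imaged; cell-cycle phase assigned by DNA content; G2 share scaled per plate, non-targeting siRNA 0%, GMNN siRNA 100%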. Scale: G2 robust z-score and G2 cells, % of GMNN control: higher = more G2 cells, more excess DNA replication; raw share of cells in G2: higher = larger share of cells with G2 DNA content. Rule for the call: 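An siRNA counts as active if its G2 robust z-score lies at least 5 MADs above the screen median; here such calls match roughly 38% of GMNN control or more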.
The deposit covers about 59,000 reagents; below is a part drawn at random. Over the whole deposit, about 1,550 (2.6%) were called active. 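G2 share is only a proxy for re-replication; each gene was hit by three separate siRNAs, and active genes were retested.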 The raw values are shown without normalisation. Unmarked entries are inactive. Reagents against one gene are numbered here. Reagent sequences are not shown. The record does not give: the amount of reagent.

Target gene | reagent no. | G2 robust z-score | G2 cells, % of GMNN control | raw share of cells in G2 (%)
FOXD4L3 (GeneID 286380) | 1 | 0.981 | 9.87 | 10.2
FOXD4L3 (GeneID 286380) | 2 | -1.11 | -4.86 | 3.06
FOXD4L3 (GeneID 286380) | 3 | -0.273 | 1.04 | 4.67
EPGN (GeneID 255324) | 1 | 0.282 | 4.95 | 5.37
EPGN (GeneID 255324) | 2 | -0.48 | -0.408 | 2.99
EPGN (GeneID 255324) | 3 | 5.43 (active) | 41.2 | 16.3
AVL9 (GeneID 23080) | 1 | 1.61 | 14.3 | 10.6
AVL9 (GeneID 23080) | 2 | 0.465 | 6.24 | 6.71
AVL9 (GeneID 23080) | 3 | -0.654 | -1.63 | 2.56
PHETA2 (GeneID 150368) | 1 | -0.42 | 0.0156 | 3.83
PHETA2 (GeneID 150368) | 2 | -0.468 | -0.328 | 2.81
PHETA2 (GeneID 150368) | 3 | -1.11 | -4.87 | 1.37
ADSL (GeneID 158) | 1 | -0.745 | -2.27 | 3.94
ADSL (GeneID 158) | 2 | -1.28 | -6.04 | 2.92
ADSL (GeneID 158) | 3 | -0.345 | 0.543 | 4.19
ARNT (GeneID 405) | 1 | -0.932 | -3.59 | 2.04
ARNT (GeneID 405) | 2 | -0.343 | 0.551 | 5.1
ARNT (GeneID 405) | 3 | -0.39 | 0.224 | 3.19

Laid out differently: 4 of the entries above.
ADSL (GeneID 158) #1
- G2 robust z-score: -0.745
- G2 cells, % of GMNN control: -2.27
- raw share of cells in G2 (%): 3.94

ADSL (GeneID 158) #2
- G2 robust z-score: -1.28
- G2 cells, % of GMNN control: -6.04
- raw share of cells in G2 (%): 2.92

ADSL (GeneID 158) #3
- G2 robust z-score: -0.345
- G2 cells, % of GMNN control: 0.543
- raw share of cells in G2 (%): 4.19

ARNT (GeneID 405) #1
- G2 robust z-score: -0.932
- G2 cells, % of GMNN control: -3.59
- raw share of cells in G2 (%): 2.04

The list goes on:
Target gene | reagent no. | G2 robust z-score | G2 cells, % of GMNN control | raw share of cells in G2 (%)
ADCYAP1 (GeneID 116) | 1 | -0.768 | -2.43 | 3.08
ADCYAP1 (GeneID 116) | 2 | -0.886 | -3.26 | 3.91
ADCYAP1 (GeneID 116) | 3 | -0.516 | -0.666 | 4.49
TNS3 (GeneID 64759) | 1 | -0.374 | 0.338 | 4.91
TNS3 (GeneID 64759) | 2 | 2.12 | 17.9 | 9.7
TNS3 (GeneID 64759) | 3 | 0.00555 | 3.01 | 4.4
PPP1R3A (GeneID 5506) | 1 | -0.665 | -1.71 | 4.24
PPP1R3A (GeneID 5506) | 2 | -0.668 | -1.73 | 3.78
PPP1R3A (GeneID 5506) | 3 | 0.543 | 6.79 | 5.54
DYNC1I2 (GeneID 1781) | 1 | 2.05 | 17.4 | 10.1
DYNC1I2 (GeneID 1781) | 2 | 2.57 | 21 | 12.5
DYNC1I2 (GeneID 1781) | 3 | -0.518 | -0.68 | 4.74
